# The other results are listed elsewhere or left out. These are raw signals, not scaled to a control.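 Primary screen: polymyxin B was added at a level permeabilizing Salmonella outer membranes while sparing inner membranes. DMSO wells, both with and without polymyxin B, established maximum growth. Plate-to-plate variation meant each plate was ranked on its own, and the lowest-OD600 compounds were selected as hits.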
# Test system: Salmonella enterica serovar Typhimurium SL1344
# Assay: bacterial growth OD600 after 18 h with compound and polymyxin B; higher = more bacterial growth (less inhibition)
# Conditions: 50 µM, Mueller-Hinton broth
structure (smiles),measurement,setting,value
O=C(NCCc1ccncc1)c1coc(COc2ccc(F)cc2)n1,bacterial growth OD600,polymyxin B 1 µg/mL,0.932
COC(=O)CCCNC(=O)c1ccc(OC2CCN(S(C)(=O)=O)CC2)c(Cl)c1,bacterial growth OD600,polymyxin B 1 µg/mL,1
OCCC1CN(Cc2c(F)cccc2F)CCN1C1CCCC1 (stereo not given),bacterial growth OD600,polymyxin B 1 µg/mL,1.04
Cc1cc2nc(N3CCC(NCc4csc(C(C)C)n4)CC3)nc(C)c2cc1C,bacterial growth OD600,polymyxin B 0.75 µg/mL,0.799
O=C1CCC(C(=O)N2CCC(Cc3ccc(F)cc3)CC2)CN1CCN1CCOCC1 (stereo not given),bacterial growth OD600,polymyxin B 1 µg/mL,1.09
O=C(Cn1nnnc1CN1CCCC1)N1CCN(C2CCc3ccccc3C2)CC1 (stereo not given),bacterial growth OD600,polymyxin B 0.75 µg/mL,0.825
COc1ccccc1CCc1nc2ccccc2n1C1CCN(C(=O)C2CCC2)CC1,bacterial growth OD600,polymyxin B 0.75 µg/mL,0.729
COc1ccc(CN2CCN(Cc3ccc(C)cc3)C(CCO)C2)c(OC)c1 (stereo not given),bacterial growth OD600,polymyxin B 1 µg/mL,0.757
CC(C)(C)CNc1ccc(C(=O)N2CCC(Oc3cccnc3)CC2)cn1,bacterial growth OD600,polymyxin B 1 µg/mL,0.869
COc1cc(OC)c(OC)cc1CN1CCC(CCC(=O)NCC2CCCO2)CC1 (stereo not given),bacterial growth OD600,polymyxin B 0.75 µg/mL,0.989
CCCc1cc(CNC(=O)c2ccc(NC(C)(C)C)nc2)on1,bacterial growth OD600,polymyxin B 1 µg/mL,0.907
O=C(c1cccc(F)c1)N1CCC(C2(Cc3ccc(F)cc3)NC(=O)N(CC3CC3)C2=O)CC1 (stereo not given),bacterial growth OD600,polymyxin B 0.75 µg/mL,0.848
O=C(CCOc1ccccc1)Nc1cnn(CC(=O)N2CCNC(=O)C2c2cccc(F)c2)c1 (stereo not given),bacterial growth OD600,polymyxin B 0.75 µg/mL,0.85
COc1ccc(CCN2CCCC(CN(C)Cc3cnc(SC)nc3)C2)cc1 (stereo not given),bacterial growth OD600,polymyxin B 1 µg/mL,0.716
Cc1nc(C(=O)NCc2cccnc2N(C)CCc2ccccn2)cs1,bacterial growth OD600,polymyxin B 1 µg/mL,0.914
COc1ccc(CN2CCN(C3CCN(c4ccccc4)CC3)CC2CCO)cc1C (stereo not given),bacterial growth OD600,polymyxin B 1 µg/mL,0.894
COc1cc(CN2CCN(Cc3ccccc3OC)CC2CCO)cc(OC)c1 (stereo not given),bacterial growth OD600,polymyxin B 1 µg/mL,0.878
C=CCC(=O)N1CCCC(CCc2ccccc2)C1 (stereo not given),bacterial growth OD600,polymyxin B 0.75 µg/mL,0.419
CCN1CCN(C2(C(=O)N(C)Cc3cn(C)nc3C)Cc3ccccc3C2)CC1,bacterial growth OD600,polymyxin B 0.75 µg/mL,0.847
Cc1ccccc1Oc1ncccc1CNC(=O)CCc1c(C)noc1C,bacterial growth OD600,polymyxin B 1 µg/mL,0.874
CCOC(=O)C1(Cc2ccc(F)cc2F)CCCN(C(=O)C(=O)c2ccccc2)C1 (stereo not given),bacterial growth OD600,polymyxin B 1 µg/mL,0.192
CCN(CC)C1CCN(C(=O)c2cc(NS(=O)(=O)CC)cc3nc(-c4ccccc4)n(C)c23)C1 (stereo not given),bacterial growth OD600,polymyxin B 0.75 µg/mL,0.801
COCc1ccc(C(=O)Nc2ccc(-c3nc(CNC(=O)C4CC(=O)N(C(C)C)C4)c(C)o3)cc2)o1 (stereo not given),bacterial growth OD600,polymyxin B 0.75 µg/mL,0.968
Cc1cc(C(=O)NCc2cccnc2N2CCCCCCC2)n[nH]1,bacterial growth OD600,polymyxin B 1 µg/mL,0.905
O=C1CCCN1CCCN1CC(C(=O)N2CCN(CC3CCCC3)CC2)CCC1=O (stereo not given),bacterial growth OD600,polymyxin B 1 µg/mL,0.815
COCCC(=O)N1CCC(Oc2ccc(C(=O)NCCc3ncccc3C)cc2)CC1,bacterial growth OD600,polymyxin B 1 µg/mL,1.01
O=C(C1CCC(=O)N(C2CCCCCC2)C1)N1CCN(C2CCCC2)C(=O)C1 (stereo not given),bacterial growth OD600,polymyxin B 1 µg/mL,1.19
COc1ccc(-n2ncc(C(C)NS(=O)(=O)c3cccc4cccnc34)c2C)cc1 (stereo not given),bacterial growth OD600,polymyxin B 1 µg/mL,0.677
CCOC(=O)C1(CCCc2ccccc2)CCN(C(=O)c2cnsn2)CC1,bacterial growth OD600,polymyxin B 1 µg/mL,0.714
O=C(CCc1ccsc1)N1CCOC(Cc2ccccc2)C1 (stereo not given),bacterial growth OD600,polymyxin B 0.75 µg/mL,0.858

# From the supplement of paper PMC12889115
